# Reference: patent publication US11827580B2, “Aminotetraline activators of serotonin receptors” (ATAI Life Sciences AG, priority 2021, dated 2023)
# Chains of the proteins cited; added tags and fusions are not shown. Residues count along the entry.
# UniProt P08908, whole entry: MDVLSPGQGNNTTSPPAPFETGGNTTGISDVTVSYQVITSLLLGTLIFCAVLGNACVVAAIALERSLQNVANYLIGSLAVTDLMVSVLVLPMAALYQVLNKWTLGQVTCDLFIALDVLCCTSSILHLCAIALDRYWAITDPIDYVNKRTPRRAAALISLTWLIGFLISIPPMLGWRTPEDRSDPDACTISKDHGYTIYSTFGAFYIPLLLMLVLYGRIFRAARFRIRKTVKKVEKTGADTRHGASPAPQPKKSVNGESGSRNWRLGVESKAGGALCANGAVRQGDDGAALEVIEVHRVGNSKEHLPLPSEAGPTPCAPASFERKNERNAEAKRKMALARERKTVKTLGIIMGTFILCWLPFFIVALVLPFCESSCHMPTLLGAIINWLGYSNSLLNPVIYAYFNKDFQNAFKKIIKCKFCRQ
# UniProt P28223, whole entry: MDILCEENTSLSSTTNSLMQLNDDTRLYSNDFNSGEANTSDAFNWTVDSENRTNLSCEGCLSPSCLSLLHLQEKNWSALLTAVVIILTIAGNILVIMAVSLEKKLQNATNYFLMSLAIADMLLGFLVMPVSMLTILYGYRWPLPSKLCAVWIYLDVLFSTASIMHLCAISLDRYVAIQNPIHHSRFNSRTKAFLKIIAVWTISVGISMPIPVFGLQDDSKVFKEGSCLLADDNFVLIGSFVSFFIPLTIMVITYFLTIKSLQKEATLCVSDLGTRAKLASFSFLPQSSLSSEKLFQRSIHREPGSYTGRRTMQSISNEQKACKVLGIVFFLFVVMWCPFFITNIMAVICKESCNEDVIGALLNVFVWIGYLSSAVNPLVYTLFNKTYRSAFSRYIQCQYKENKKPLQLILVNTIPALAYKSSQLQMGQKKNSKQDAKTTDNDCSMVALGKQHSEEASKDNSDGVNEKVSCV
# UniProt P41595, whole entry: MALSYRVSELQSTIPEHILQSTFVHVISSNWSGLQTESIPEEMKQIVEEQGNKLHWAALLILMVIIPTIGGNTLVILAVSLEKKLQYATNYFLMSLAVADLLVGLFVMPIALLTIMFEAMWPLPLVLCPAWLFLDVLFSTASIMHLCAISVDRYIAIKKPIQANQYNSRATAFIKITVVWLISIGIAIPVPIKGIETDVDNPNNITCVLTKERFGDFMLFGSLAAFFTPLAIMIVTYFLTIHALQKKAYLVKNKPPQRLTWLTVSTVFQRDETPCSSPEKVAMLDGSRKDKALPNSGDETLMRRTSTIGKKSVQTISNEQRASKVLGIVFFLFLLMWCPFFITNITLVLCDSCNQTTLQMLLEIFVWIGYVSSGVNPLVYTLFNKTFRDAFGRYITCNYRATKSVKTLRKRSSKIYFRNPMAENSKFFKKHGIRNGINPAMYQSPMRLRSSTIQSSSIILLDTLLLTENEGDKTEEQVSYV
# UniProt P28335, 33-458 limits assumed: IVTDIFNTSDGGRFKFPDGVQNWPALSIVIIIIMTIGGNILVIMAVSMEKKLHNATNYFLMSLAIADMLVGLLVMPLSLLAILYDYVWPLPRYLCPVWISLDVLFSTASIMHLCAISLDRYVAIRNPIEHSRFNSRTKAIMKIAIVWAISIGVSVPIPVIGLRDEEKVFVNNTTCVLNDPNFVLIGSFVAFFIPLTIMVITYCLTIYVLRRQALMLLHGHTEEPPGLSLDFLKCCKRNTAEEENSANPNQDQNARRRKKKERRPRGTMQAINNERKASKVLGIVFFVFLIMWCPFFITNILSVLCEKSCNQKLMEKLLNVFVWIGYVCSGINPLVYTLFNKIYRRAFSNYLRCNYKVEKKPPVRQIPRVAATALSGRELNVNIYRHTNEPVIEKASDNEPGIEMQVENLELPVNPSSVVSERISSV
# The structures given here were assigned with low confidence; some may be wrong.
# Columns and labels:
# [1] = target: T1, 5-HT1A (Homo sapiens, UniProt P08908); assay: cAMP secondary messenger pathway assay (HitHunter cAMP, Gi agonist mode); conditions: read-out: EC50 5-HT1A (Gi signaling), CHO cells, forskolin present, tested form: TFA
# Description: cAMP Secondary Messenger Pathway Assay Method (Performed by DiscoveRx Eurofins)
# DiscoverX has developed a panel of cell lines stably expressing non-tagged GPCRs that signal through cAMP. Hit Hunter® cAMP assays monitor the activation of a GPCR via Gi and Gs secondary messenger signaling in a homogenous, non-imaging assay format using a technology developed by DiscoverX called Enzyme Fragment Complementation (EFC) with β-galactosidase (β-Gal) as the functional reporter. The enzyme is split into two complementary portions: EA for Enzyme Acceptor and ED for Enzyme Donor. ED is fused to cAMP and in the assay competes with cAMP generated by cells for binding to a cAMP-specific antibody. Active β-Gal is formed by complementation of exogenous EA to any unbound ED-cAMP. Active enzyme can then convert a chemiluminescent substrate, generating an output signal detectable on a standard microplate reader.
# cAMP Hunter cell lines were expanded from freezer stocks according to standard procedures. Human 5-HT1A receptor-mediated cAMP signaling was evaluated in stably transfected hamster-derived CHO cells. Cells were seeded in a total volume of 20 μL into white walled, 384-well microplates and incubated at 37° C. overnight. cAMP modulation was determined using the DiscoverX HitHunter cAMP XS+ assay. […]
# Compound activity was analyzed using CBIS data analysis suite (ChemInnovation, CA). […]
# [2] = target: T1, 5-HT1A; assay: β-arrestin signaling assay; conditions: read-out: EC50 5-HT1A (β-arrestin signaling); tested form: TFA
# Description: (§1) Arrestin Pathway (Performed by DiscoverX Eurofins)
# (§2) The PathHunter® β-Arrestin assay monitors the activation of a GPCR in a homogenous, non-imaging assay format using a technology developed by DiscoverX called Enzyme Fragment Complementation (EFC) with β-galactosidase (β-Gal) as the functional reporter. […] EA is fused to β-Arrestin and PK is fused to the GPCR of interest. When the GPCR is activated and β-Arrestin is recruited to the receptor, ED and EA complementation occurs, restoring β-Gal activity which is measured using chemiluminescent PathHunter® Detection Reagents.
# For agonist determination, cells were incubated with sample to induce response. Intermediate dilution of sample stocks was performed to generate 5× sample in assay buffer. […]
# (§3) β-Arrestin assay signal was generated through a single addition of 12.5 or 15 μL (50% v/v) of PathHunter Detection reagent cocktail, followed by a one hour incubation at room temperature. Microplates were read following signal generation with a PerkinElmer Envision™ instrument for chemiluminescent signal detection.
# Compound activity was analyzed using CBIS data analysis suite (ChemInnovation, CA). For agonist mode assays, percentage activity was calculated using the following formula: % Activity=100%×(mean RLU of test sample−mean RLU of vehicle control)/(mean MAX control ligand−mean RLU of vehicle control). […]
# [3] = target: T2, 5HT2A (Homo sapiens, UniProt P28223); assay: Calcium mobilization assay (Gq signaling); conditions: tested form: TFA
# Description: (§4) Calcium Mobilization Assay Method (Performed by DiscoveRx Eurofins)
# (§5) The Calcium No-Wash^PLUS assay monitors the activation of a GPCR via Gq secondary messenger signaling in a live cell, non-imaging assay format. Calcium mobilization in PathHunter® cell lines or other cell lines stably expressing Gq-coupled GPCRs is monitored using a calcium-sensitive dye that is loaded into cells. GPCR activation by a compound results in the release of calcium from intracellular stores and an increase in dye fluorescence that is measured in real-time.
# (§6) Cell lines expressing the GPCR of interest were expanded from freezer stocks according to standard procedures. Human 5-HT2A, 5-HT2B or 5-HT2C receptor-mediated calcium mobilization was evaluated in stably transfected human-derived U2OS (5-HT2A or 5-HT2B) or HEK (5-HT2B) cells. Cells were seeded in a total volume of 20 μL into black-walled, clear-bottom, Poly-D-lysine coated 384-well microplates and incubated at 37° C. overnight prior to testing.
# (§7) Assays were performed in 1× Dye Loading Buffer consisting of 1× Dye, 1× Additive A and 2.5 mM Probenecid in HBSS/20 mM Hepes. Probenicid was prepared fresh. Cells were loaded with dye prior to testing. Media was aspirated from cells and replaced with 20 μL Dye Loading Buffer. Cells were incubated for 45 minutes at room temperature.
# (§8) For agonist determination, cells were incubated with sample to induce response. After dye loading, cells were removed from the incubator and 10 μL HBSS/20 mM Hepes was added. 3× vehicle was included in the buffer when performing agonist dose curves to define the EC80 for subsequent antagonist assays. Cells were incubated for 30 minutes at room temperature in the dark to equilibrate plate temperature.
# (§9) Intermediate dilution of sample stocks was performed to generate 4× sample in assay buffer. Compound agonist activity was measured on a FLIPR Tetra (MDS). Calcium mobilization was monitored for 2 minutes and 10 μL 4× sample in HBSS/20 mM Hepes was added to the cells seconds into the assay.
# (§10) Compound activity data was analyzed using CBIS data analysis suite (ChemInnovation, CA). For agonist mode assays, percentage activity is calculated using the following formula: % Activity=100%×(mean RFU of test sample−mean RFU of vehicle control)/(mean MAX RFU control ligand−mean RFU of vehicle control).
# (§11) In these studies, the MAX RFU was generated by using 0.1 μM serotonin for the calcium mobilization assay.
# [4] = target: Human 5-HT2B receptor (Homo sapiens, UniProt P41595); assay: Calcium mobilization assay (Gq signaling); conditions: read-out: EC50 5-HT2B (Gq signaling), tested form: TFA
# Description: as §4, §5, §6, §7, §8, §9, §10, §11
# [5] = target: Human 5-HT2C receptor (Homo sapiens, UniProt P28335); assay: Calcium mobilization assay (Gq signaling); conditions: read-out: EC50 5-HT2C (Gq signaling), tested form: TFA
# Description: as §4, §5, §6, §7, §8, §9, §10, §11
# [6] = target: T2, 5HT2A; assay: PathHunter β-Arrestin assay; conditions: tested form: TFA
# Description: as §1, §2
# PathHunter cell lines (DiscoveRx Eurofins) were expanded from freezer stocks according to standard procedures. Human 5-HT2A receptor-mediated GPCR β-arrestin activity was evaluated in stably transfected human-derived U2OS cells. Cells were seeded in a total […] into white walled, 384-well microplates and incubated at 37° C. overnight prior to testing.
# For agonist determination, cells were incubated with sample to induce response. Intermediate dilution of sample stocks was performed to generate 5× sample in assay buffer. 5 μL of 5× sample was added to cells and incubated at 37° C. or room temperature for 120 minutes. Vehicle concentration was 1%.
# as §3
# Compound activity was analyzed using CBIS data analysis suite (ChemInnovation, CA). For agonist mode assays, percentage activity was calculated using the following formula: % Activity=100%×(mean RLU of test sample−mean RLU of vehicle control)/(mean MAX control ligand−mean RLU of vehicle control).
# In these studies, the MAX control ligand response was generated using 1 μM serotonin.
# [7] = target: T2, 5HT2A; assay: 5HT2A activation (%) max at two concentrations (Table 1); format: cell-based; conditions: tested form: TFA
compound,measurement,setting,value
COc1cc(I)c(OC)c2c1CC(N)CC2 (centres unmarked),EC50,[1],369 nM
same,EC50,[2],> 10 µM
same,"potency bias, 5-HT2A Gq-mediated signaling versus β-arrestin recruitment",[3]; FIG. 1B,14 fold
same,increase in potency at 5-HT2A compared to 5-HT2B,"[3]; Gq signaling, FIG. 1A",> 1136 fold
same,potency across 5-HT2A and 5-HT2C,[3]; Gq signaling,near equipotency
same,max activation of 5-HT2A Gq-mediated signaling,[3]; compared to the maximum serotonin response,82%
same,EC50,"[3]; read-out: EC50 5-HT2A (Gq signaling), calcium mobilization",8.8 nM
same,EC50,[4],> 10 µM
same,EC50,[5],5.6 nM
same,maximum efficacy levels (partial agonism),"[6]; pathway not given, β-arrestin by context",35%
same,EC50,"[6]; read-out: EC50 5-HT2A (β-arrestin signaling), U2OS cells",120 nM
same,agonism / potency for β-arrestin recruitment at 5-HT2A,[6],partial agonism
same,5HT2A activation (%) max @ 03 μM,[7]; 03 μM [sic],55.4%
same,5HT2A activation (%) max @ 30 μM,[7]; 30 μM (first value of the cell),72.2%
